Experimental data reported in patent US20190367605A1 (AstraZeneca / MedImmune, published 2019).
Positions count from the first letter of the chain named. No constants are given. Whether binding was seen depends on the method and setting. Some results given as binding are weak or reduced against the parent protein; the word gives no strength. One block for each binder: values may come before it.

How the values were obtained:
[1] = molecular target: T1, human ASCT2 (system ASC amino acid transporter 2, SLC1A5) (human) (UniProt Q15758); test: flow cytometry on WiDr cells and CHO cells expressing HuASCT2
T1 sequence (looked up): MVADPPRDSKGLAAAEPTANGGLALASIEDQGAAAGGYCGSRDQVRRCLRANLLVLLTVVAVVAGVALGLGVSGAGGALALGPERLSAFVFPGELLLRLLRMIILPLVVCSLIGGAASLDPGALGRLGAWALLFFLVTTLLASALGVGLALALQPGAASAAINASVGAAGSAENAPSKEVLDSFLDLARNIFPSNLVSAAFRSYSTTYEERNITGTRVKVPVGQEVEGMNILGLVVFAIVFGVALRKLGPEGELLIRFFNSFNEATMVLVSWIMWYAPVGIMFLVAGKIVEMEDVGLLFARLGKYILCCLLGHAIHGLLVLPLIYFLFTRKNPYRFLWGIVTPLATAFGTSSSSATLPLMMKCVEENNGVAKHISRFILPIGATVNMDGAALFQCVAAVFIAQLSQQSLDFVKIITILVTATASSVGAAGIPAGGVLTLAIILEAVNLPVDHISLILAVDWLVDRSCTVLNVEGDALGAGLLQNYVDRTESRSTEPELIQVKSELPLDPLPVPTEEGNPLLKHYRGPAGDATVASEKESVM

[2] = molecular target: T1, human ASCT2 (system ASC amino acid transporter 2, SLC1A5) (human); test: flow cytometry on WiDr cells with ASCT2 shRNA or non-target shRNA
[3] = molecular target: T1, human ASCT2 (system ASC amino acid transporter 2, SLC1A5) (human); test: flow cytometry on SKMEL-2 cells with shRNA knockdown
[4] = molecular target: T2, cynomolgus monkey ASCT2 (cynomolgus monkey (Macaca fascicularis)) (UniProt G7PXZ3); test: flow cytometry on CHO cells expressing CyASCT2
T2 sequence: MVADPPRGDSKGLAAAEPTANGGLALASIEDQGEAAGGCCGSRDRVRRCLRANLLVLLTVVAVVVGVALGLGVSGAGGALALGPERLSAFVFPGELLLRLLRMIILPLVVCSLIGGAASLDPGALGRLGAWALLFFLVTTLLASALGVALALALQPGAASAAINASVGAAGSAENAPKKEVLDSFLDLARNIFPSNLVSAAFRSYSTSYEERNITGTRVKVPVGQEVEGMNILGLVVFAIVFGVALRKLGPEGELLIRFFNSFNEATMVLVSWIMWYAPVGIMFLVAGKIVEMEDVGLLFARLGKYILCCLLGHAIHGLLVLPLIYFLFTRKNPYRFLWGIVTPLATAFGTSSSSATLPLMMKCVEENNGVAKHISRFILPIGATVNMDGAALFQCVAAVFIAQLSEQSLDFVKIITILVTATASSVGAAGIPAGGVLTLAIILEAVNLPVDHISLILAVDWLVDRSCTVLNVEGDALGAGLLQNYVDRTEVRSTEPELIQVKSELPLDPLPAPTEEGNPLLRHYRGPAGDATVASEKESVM

binding [1]: binds
binding [2]: binds
binding [3]: binds
binding [4]: binds
B1: anti-ASCT2 antibody 17c10 (original, non-germlined, parental) (antibody, V domains shown)
VH: QVQLQQWGAGLLKPSETLSLTCAVYGGSFSGYYWSWIRQPPGKGLEWIGEIHHSGGANYNPSLKSRVTISVDTSKNQFSLKLTSVTAADTAVYYCARGQGKNWHYDYFDYWGQGTLVTVSS
VL: DIQMTQSPSTLSTSVGDRVTLTCRASQSIRSWLAWYQQNPGKAPKLLIYKASILKIGVPSRFSGSGSGTDFTLTITSLQPDDFATYYCQQYYSYSRTFGQGTKVEIK
notes: also called 17c10 parental antibody; ASCT2 mAb 17c10

binding [2]: binds
B2: anti-ASCT2 antibody 1e8 (original) (antibody, V domains shown)
VH: B1 VH with R38P, L45V, H52N, G56S, A57T, V71S, H104N
VL: B1 VL with T13A, N39K, I53S, I56S, T76S, Y94F
notes: also called ASCT2 mAb 1e8

binding [4]: binds
B3: germlined 17c10 antibody (antibody, V domains shown)
VH: B1 VH with T83S
VL: B1 VL with T13A, L21I, N39K, D70E, T76S
notes: also called 17c10 germlined antibody
